From paper PMC4024641
No constants are given. Whether binding was seen depends on the method and setting. Binding seen in cells or lysates may run through a third protein. Some entries that bind do so weakly or less than the wild type. Sequences can lack the tags named with a protein. Blank lines part the entries; values can stand above or below the binder they belong to.

Tests used:
Rrp6-13×myc (S. pombe) [1] = molecular target: T1, Rrp6-13×myc (S. pombe) (UniProt Q10146); assay: co-IP; α-myc (9E10) on Protein G Dynabeads from S. pombe cell lysate, 4°C 2–3 h, lysis buffer; blot with α-FLAG-HRP; without RNase A
T1 sequence: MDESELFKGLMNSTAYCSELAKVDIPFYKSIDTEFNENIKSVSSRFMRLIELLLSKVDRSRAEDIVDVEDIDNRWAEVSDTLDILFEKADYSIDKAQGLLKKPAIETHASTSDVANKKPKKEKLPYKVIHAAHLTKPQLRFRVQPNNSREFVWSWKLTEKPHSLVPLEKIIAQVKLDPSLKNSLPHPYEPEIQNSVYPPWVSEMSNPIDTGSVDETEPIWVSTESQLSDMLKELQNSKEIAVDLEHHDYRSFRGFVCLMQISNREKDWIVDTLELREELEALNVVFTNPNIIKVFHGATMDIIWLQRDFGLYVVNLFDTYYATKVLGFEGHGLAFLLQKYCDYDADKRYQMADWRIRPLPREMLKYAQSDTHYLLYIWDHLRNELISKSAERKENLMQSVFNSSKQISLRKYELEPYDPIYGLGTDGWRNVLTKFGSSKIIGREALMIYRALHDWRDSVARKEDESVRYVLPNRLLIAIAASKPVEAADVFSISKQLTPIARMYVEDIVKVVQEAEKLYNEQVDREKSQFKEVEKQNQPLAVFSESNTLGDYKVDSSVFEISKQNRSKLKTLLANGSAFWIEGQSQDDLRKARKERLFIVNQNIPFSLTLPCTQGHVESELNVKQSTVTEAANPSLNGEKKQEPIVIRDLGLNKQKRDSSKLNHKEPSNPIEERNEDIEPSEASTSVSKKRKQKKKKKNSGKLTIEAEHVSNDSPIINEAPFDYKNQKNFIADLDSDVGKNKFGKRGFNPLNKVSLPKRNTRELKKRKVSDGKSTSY

Rrp6-13×myc (S. pombe) [2] = molecular target: T1, Rrp6-13×myc (S. pombe); assay: co-IP; α-myc (9E10) on Protein G Dynabeads from S. pombe cell lysate, 4°C 2–3 h; RNase A 100 μg/mL present during binding and washing; blot with α-FLAG-HRP
[3] = molecular target: T2, Red5-13×myc (S. pombe), O74823; assay: co-IP; α-myc (9E10) on Protein G Dynabeads from S. pombe cell lysate, 4°C 2–3 h, lysis buffer; blot with α-FLAG-HRP; without RNase A; settings: remark: other sources report otherwise
T2 chain: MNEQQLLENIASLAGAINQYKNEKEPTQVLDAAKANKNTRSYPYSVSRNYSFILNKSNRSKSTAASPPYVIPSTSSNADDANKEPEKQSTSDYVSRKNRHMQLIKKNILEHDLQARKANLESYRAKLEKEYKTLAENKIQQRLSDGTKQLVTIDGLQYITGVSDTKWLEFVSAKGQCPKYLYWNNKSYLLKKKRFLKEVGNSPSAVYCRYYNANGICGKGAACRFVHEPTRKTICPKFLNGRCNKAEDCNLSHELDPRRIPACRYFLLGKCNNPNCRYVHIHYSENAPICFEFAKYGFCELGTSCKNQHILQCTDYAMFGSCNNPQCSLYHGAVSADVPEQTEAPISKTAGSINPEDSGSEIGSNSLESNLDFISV

Rmn1-13×myc (S. pombe) [4] = molecular target: T3, Rmn1-13×myc (S. pombe) (UniProt Q9USP9); assay: as above
T3 sequence: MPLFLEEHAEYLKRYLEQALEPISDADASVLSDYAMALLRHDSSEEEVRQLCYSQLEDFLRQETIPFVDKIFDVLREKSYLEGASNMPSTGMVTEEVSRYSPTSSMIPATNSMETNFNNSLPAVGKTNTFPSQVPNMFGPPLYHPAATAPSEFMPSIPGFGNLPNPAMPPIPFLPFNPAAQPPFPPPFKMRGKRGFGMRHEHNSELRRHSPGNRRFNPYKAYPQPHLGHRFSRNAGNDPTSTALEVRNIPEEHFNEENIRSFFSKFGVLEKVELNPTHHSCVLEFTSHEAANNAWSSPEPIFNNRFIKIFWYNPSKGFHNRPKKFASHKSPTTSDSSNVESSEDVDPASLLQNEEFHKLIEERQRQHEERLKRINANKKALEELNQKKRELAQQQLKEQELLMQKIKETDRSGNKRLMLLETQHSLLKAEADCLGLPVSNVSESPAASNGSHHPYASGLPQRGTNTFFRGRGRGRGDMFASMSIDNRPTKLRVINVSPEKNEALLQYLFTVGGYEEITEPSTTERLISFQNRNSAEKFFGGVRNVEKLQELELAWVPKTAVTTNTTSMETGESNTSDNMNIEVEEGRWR

Ars2-13×myc (S. pombe) [5] = molecular target: T4, Ars2-13×myc (S. pombe) (UniProt O94326); assay: as above
T4 sequence: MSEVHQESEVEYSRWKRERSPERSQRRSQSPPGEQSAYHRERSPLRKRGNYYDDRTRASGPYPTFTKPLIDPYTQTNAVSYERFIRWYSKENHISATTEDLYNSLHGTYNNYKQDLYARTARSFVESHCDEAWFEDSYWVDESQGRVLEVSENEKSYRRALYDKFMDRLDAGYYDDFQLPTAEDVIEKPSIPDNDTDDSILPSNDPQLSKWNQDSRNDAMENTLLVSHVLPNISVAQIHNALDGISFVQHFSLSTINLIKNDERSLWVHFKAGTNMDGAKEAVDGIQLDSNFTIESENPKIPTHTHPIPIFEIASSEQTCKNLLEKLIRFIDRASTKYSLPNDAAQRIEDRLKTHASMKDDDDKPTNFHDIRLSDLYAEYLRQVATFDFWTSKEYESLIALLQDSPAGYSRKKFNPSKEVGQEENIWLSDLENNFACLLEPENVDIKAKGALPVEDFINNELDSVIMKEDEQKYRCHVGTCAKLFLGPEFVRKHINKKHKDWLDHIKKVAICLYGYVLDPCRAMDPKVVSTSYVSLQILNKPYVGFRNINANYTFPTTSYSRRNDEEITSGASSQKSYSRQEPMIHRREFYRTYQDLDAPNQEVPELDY

Rmn1-13×myc (S. pombe) [6] = molecular target: T3, Rmn1-13×myc (S. pombe); assay: co-IP; α-myc (9E10) on Protein G Dynabeads from S. pombe cell lysate, 4°C 2–3 h; RNase A 100 μg/mL present during binding and washing; blot with α-FLAG-HRP
Ars2-13×myc (S. pombe) [7] = molecular target: T4, Ars2-13×myc (S. pombe); assay: as above

binding (Rrp6-13×myc (S. pombe) [1]): binds
binding (Rrp6-13×myc (S. pombe) [2]): binds
B1: Mtl1-3×FLAG (protein, UniProt O13799 1-1030)
chain: MSENSTDSKNFQFSEGSRESSNDELKVLLRDTETKEDEKSSFSNSEEESIIENLSDSSVNKEYAKNSLKLSDAVSESKYLNPLLKDKRHDRSFALHKVVVPDDYDYIPLNKHIPSDPPAKTYPFELDPFQSTAIKCVERMESVLVSAHTSAGKTVIAEYAIAQALKNRQRVIYTSPIKSLSNQKYRELLSEFGDVGLMTGDVSINPSASCLIMTTEILRAMLYKNSEIMHEIAWVIFDEVHYMRDKDRGVVWEETLILLPDAIRFIFLSATLPNALQFARWISEIHKQPCHVVYTDYRPTPLQHFIYPQGADGIYMLVDEKNKFKTENFKKVLEVLDHSTRQENYSKSSKKVKKSSSLERIINMVLSNRYDPIIVFCFSKKECEINAHQFGKLDLNDTENKELVTEIFDSAINQLSEEDRGLRQFEEMRSLLLRGIGIHHSGLLPILKELVEILFQEGLVRILFATETFSIGLNMPARTVLFTKAQKFSGNNFRWLTSGEYMQMSGRAGRRGIDTKGLSIVILDQSIDEQAARCLMNGQADVLNSAFHLSYGMILNLMRIEEISPEDILKKSFYQFQNMESLPLIKEELMQLKNEETSINIPNETAVKEFHDLKLQLEKYGEEIQKVMTHPDNCLPYLQSGRLIQIKLGGIIFPWGVLVNVIKREFDPNTREQVAPHETYVLDVLLPISSNSMSNHKVNPSILVPPRPNETPLYEIVSVLLTAVCNISSIRIYMPRELNSNESKLRAYRRVNEVIEEFKEIPYLDPLEHMHIESSTLSLSLRKLEILEPKLFDSPYYKDSKHRAEYHEFRKKLNLRAQIKDISTKITNTEAIIQLRELKIRQRVLRRLGFCTLENVIDIKGRVACEITSGDELLLVELIFQGFFNQMPPEEIAAALSCFVYEDKSEVSTLNLKEPFKKMYLTIIEAAKRIATVSLESKLQFNESDYLHQFKPDIMEPVSLWINGASFQEICIVSKLYEGSIVRTFRRLDELLKQLEHAAIVLGNNELKEKSVLTEQKLHRDIIFSASLYL

binding [3]: binds
B2: Red1-3×FLAG, Q9UTR8 1-712 (protein)
chain: MSRSINLDELRKKALESKKKNEEDESNDSDKEDGEISEDDPVIDQSNSVPPMKVPTFPEQIPQLPPFDRFPGTNANFFPFGAPFMLPPALMFGPNTVPFFPQTASSNKTFSKRKRSSENSFNNRNKAKSSETSDSSNTSQSFKENRALKDTATSRPLALSSDTSYQKSEKAKSEKSPFLSTSKNSDANYSKTTNQKEAEKAVSQLFEVGVRFNDFIAEGIEPSVVHTLFLKLGLDSSSASSQGSLTLSADKAARSAKLRKIDSNLSDTHILPGDNGTPTVLPERKNLISLPLLKQDDWLSSSKPFGSSTPNVVIEFDSDDDGDDFSNSKIEQSNLEKPPSNSENGLTMSRSDYLALLRNKEEEIRRMTKLILRLESNKKPYRSPTSAADMKLPSVPVAAVDNKSKTHLDTFEKVVDLSSKADFVEAGPSISSSGASSSAATTNSDTTEQILEAPWLRKTEQIAVVHEEHPAQIKKSEIDILNNLIEKEEGELTKYQTLVKSKTEILTQLYTRKKQLLEQQGKGNVACLPKESDLSMDSITEVSAQADENSSQILSSKTSNAPNGTTETDFEDKVPLVDYISPFYRFKSYRFNQQFVERVPLKYRSLTYSNKIEPMKVFCKYETTGGVCNDDHCEASHFRDIKMTDDEIIQDLSRYIEGNDEIEKESYKSGLDIVMKNTDENTDFVDVATRIVEYHNLWKSERMTIPVAKVSI

binding (Rmn1-13×myc (S. pombe) [4]): binds
binding (Ars2-13×myc (S. pombe) [5]): binds
binding (Rmn1-13×myc (S. pombe) [6]): binds
binding (Ars2-13×myc (S. pombe) [7]): binds
B3: Red1-3×FLAG (protein, UniProt Q9UTR8 1-712)
chain: B2 chain
